{
  "source": "PubChem BioAssay AID445",
  "about": "(National Center for Advancing Translational Sciences (NCATS), 2006)",
  "note": "Some of the results follow. Further columns of the screen follow, without active or inactive calls. The list favours compounds with an active or inconclusive main result. The note in brackets gives the kind of curve behind each potency; many fits are weak.",
  "data": [
    {"assay": "IkB Signaling", "settings": "ABC-DLBCL IkBa-CBG/CBR dual luciferase ratio (green luciferase fused to IkBa over red control in OCI-Ly3 lymphoma cells), 4 h; measured here: control luc red channel unless noted", "how_it_was_run": "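In this assay, an IκBα–CBG68 fusion accumulates when IKK-driven degradation is blocked; native CBR normalizes for cell number. OCI-Ly3 cells were treated 4 h with compound and doxycycline, then green and red light read after Chroma-Glo addition.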", "values": [
      {"smiles": "COc1cc(-c2nnc(SCCOc3ccc(Cl)cc3)o2)cc(OC)c1OC", "AC50": "5.01 µM [rising, full curve, poor fit]"},
      {"smiles": "COc1ccccc1N1CCN(C(=O)c2cn(CC(C)C)c(=O)c3c2c2ccccc2n3C)CC1", "AC50": "12.6 µM [falling, partial curve]"},
      {"smiles": "NC(=O)C1(N2CCCCC2)CCN(CC(=O)Nc2ccccc2-c2ccccc2)CC1", "AC50": "15.8 µM [falling, partial curve]"},
      {"smiles": "CCCOc1ccc(NC(=O)CC2C(=O)N(c3cccc(OC)c3)C(=O)N2Cc2cccs2)cc1", "note": "(configuration not stated)", "AC50": "7.94 µM [falling, partial curve]"},
      {"smiles": "Cc1nc2ccn(Cc3ccccc3)c(=O)c2cc1C(=O)N1CCN(c2ccccc2F)CC1", "AC50": "12.6 µM [falling, partial curve]"},
      {"smiles": "Cc1cc(F)ccc1S(=O)(=O)Nc1ccc2oc3c(c2c1)CC(C)CC3", "note": "(configuration not stated)", "AC50": "31.6 µM [falling, partial curve]"},
      {"smiles": "COc1cc(OC)cc(-c2cc3nc(C)c(CCC(=O)NCc4ccccc4)c(C)n3n2)c1", "AC50": "2.51 µM [falling, full curve]"},
      {"smiles": "CCOc1ccccc1C(=O)NC1(C(F)(F)F)NC(=O)N(CCc2ccc(OC)c(OC)c2)C1=O", "note": "(configuration not stated)", "AC50": "2.51 µM [rising, partial curve]"},
      {"smiles": "CCc1nc2sc3c(c2c(=O)n1N)CCC3", "AC50": "7.94 µM [rising, partial curve]"},
      {"smiles": "Cc1cc(C)c(S(=O)(=O)Nc2cccc(C(F)(F)F)c2)c(C)c1", "AC50": "39.8 µM [falling, partial curve]"},
      {"smiles": "CCOC(=O)c1c(-c2ccc(C)o2)csc1NC(=O)CSc1nncs1", "AC50": "20 µM [falling, single point]"},
      {"smiles": "CCOc1ccccc1CNC(=O)C1CCN(S(=O)(=O)c2ccc3[nH]c(=O)ccc3c2)CC1", "AC50": "25.1 µM [falling, partial curve]"},
      {"smiles": "CCN(CC(=O)Nc1c(C(=O)OC)[nH]c2ccc(C)cc12)c1ccc2c(c1)OCO2", "AC50": "12.6 µM [falling, partial curve]"},
      {"smiles": "COc1ccc(C2C(C#N)=C(N)N3C(=C2C#N)Sc2ccccc23)cc1", "note": "(configuration not stated)", "AC50": "12.6 µM [falling, partial curve]"},
      {"smiles": "Clc1ccc(OCc2nn3c(C4CCCCC4)nnc3s2)cc1", "AC50": "25.1 µM [falling, partial curve]"},
      {"smiles": "CCOC(=O)c1c(C)oc2ncnc(Nc3ccc(OC)cc3OC)c12", "AC50": "0.126 µM [rising, full curve, poor fit]"},
      {"smiles": "COc1ccccc1NC(=O)CSC1=Nc2ccccc2C2=NC(CCC(=O)NCCc3ccccc3)C(=O)N12", "note": "(configuration not stated)", "AC50": "39.8 µM [falling, single point]"}
    ]}
  ]
}
